# Experimental data as given in article doi:10.1101/2023.05.24.542039.
# By UniProt entry, the sequences of proteins in these tests, tags left out.
# UniProt O00482: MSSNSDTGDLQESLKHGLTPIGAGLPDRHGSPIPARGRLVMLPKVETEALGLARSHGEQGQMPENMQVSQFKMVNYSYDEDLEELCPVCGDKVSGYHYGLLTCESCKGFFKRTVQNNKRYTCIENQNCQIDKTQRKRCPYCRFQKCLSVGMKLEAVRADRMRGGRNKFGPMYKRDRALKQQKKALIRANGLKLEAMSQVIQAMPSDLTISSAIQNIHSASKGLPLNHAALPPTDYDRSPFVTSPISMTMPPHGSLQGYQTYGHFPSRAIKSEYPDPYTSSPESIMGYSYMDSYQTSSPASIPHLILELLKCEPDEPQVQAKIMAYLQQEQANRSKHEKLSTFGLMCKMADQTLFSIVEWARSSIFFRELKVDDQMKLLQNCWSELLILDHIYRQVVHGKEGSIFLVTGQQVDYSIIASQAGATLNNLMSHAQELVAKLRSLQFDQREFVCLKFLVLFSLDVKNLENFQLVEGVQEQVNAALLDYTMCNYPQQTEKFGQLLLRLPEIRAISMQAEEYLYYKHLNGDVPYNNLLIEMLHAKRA
# UniProt Q04206: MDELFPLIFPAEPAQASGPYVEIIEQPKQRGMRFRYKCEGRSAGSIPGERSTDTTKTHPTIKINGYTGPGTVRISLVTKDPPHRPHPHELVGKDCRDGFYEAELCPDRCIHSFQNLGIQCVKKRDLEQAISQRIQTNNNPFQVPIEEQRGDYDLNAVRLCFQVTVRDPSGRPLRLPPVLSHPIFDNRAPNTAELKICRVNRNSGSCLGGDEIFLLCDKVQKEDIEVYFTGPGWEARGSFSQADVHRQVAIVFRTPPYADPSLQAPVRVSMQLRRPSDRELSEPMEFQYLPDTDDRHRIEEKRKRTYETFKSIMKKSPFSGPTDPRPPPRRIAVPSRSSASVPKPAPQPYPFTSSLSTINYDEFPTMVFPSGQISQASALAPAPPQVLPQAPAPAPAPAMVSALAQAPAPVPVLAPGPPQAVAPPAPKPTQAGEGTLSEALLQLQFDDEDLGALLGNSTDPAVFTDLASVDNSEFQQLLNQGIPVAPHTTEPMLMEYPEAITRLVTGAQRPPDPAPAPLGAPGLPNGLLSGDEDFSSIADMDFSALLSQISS
# These are yes or no findings as the source states them, for the method shown. Binding seen in cells or lysates may run through a third protein. Some binding calls cover weakened binding; strength is not graded here.
# Biological target: human Flag-tagged LRH-1 (Liver Receptor Homolog-1, NR5A2) (human) (UniProt O00482)
# Assay: co-IP
substance,measurement,value
NF-kB subunit RelA (from UniProt Q04206 1-551),binding,binds
